Literature values, collected in patent US5587382A, “6,9-bis[(2-aminoethyl) amino]benzo [g]isoquinoline-5,10- dione dimaleate; an aza-anthracenedione with reduced cardiotoxicity” (priority 1995, dated 1996).
At least one structure is not confirmed: it was looked up by name or label, or the drawing left a doubt.

Conditions: cited from earlier work

In the case of `COc1cccc2c1C(=N)c1c(O)c3c(c(O)c1C2=O)C[C@@](O)(C(C)=O)C[C@@H]3O[C@H]1C[C@H](N)[C@H](O)[C@H](C)O1` [5-iminodaunorubicin], the reduction potential is listed as -0.675 Volts.
